From PMC7718877 come the findings set out here.

By UniProt entry, the sequences of proteins in these tests, tags left out. Residues count along the entry.
UniProt P19809, residues 555-753: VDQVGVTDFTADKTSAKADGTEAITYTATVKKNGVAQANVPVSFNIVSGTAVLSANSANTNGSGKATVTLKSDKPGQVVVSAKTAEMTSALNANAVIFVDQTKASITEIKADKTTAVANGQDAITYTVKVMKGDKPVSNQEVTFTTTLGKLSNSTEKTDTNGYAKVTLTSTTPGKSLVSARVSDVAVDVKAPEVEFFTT

In experiment [1] the target is intimin subdomains D0–D1 (enteropathogenic Escherichia coli (EPEC) strain E2348/69) (UniProt P19809). In words: SEC-MALS; Superdex 75 10/300, 10 mM HEPES-NaOH pH 7.5, 100 mM KCl, different protein concentrations, 50 µl injected at 0.4 ml/min; both purified. (In gel filtration, larger molecules generally elute earlier.)
The target is the same in experiment [2]. The experiment in a line: SAXS; concentration series in 10 mM HEPES-NaOH pH 7.5, 100 mM KCl; protein concentrated to ca. 28 mg/ml; OLIGOMER analysis with monomer models and crystal dimers for D00–D0; both purified.

No constants are given. Whether binding was seen depends on the method and setting.

Take “intimin subdomains D0–D1 (from UniProt P19809 555-753) (domain or fragment)”: the binding entry in experiment [1] and in experiment [2] was “no binding” in each case.
